± gives the standard deviation. Only a part is listed here, and it is no random draw. The uncertainty is large for many entries. Some of the results follow.
Experiments:
[1] = test system: MILI (PIWIL2) piRISC loaded with L1MC piRNA (26 nt); experiment: pre-steady-state target cleavage rate (min^-1); higher = faster piRNA-guided slicing of the target; conditions: guide: L1MC piRNA 5'p-UAACUAAAUACUAUGCAAGCUGUAGG
Procedure, shortened: (§1)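 A transcribed, DNA-blocked target RNA library […] was incubated at 33 °C for 0–8 or 0–960 min with 1 nM active affinity-purified piRISC carrying one synthetic guide, in HEPES–potassium acetate buffer with or without 500 nM GTSF1 partner protein. Uncleaved targets were then sequenced and normalised to depth and to weakly complementary targets. Data from three trials were pooled, with k3 capped at 0.0001 min^-1, and a burst-and-steady-state fit yielded the pre-steady-state cleavage rate.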

[2] = test system: MIWI (PIWIL1) piRISC loaded with L1MC piRNA (30 nt); experiment: as above; conditions: guide: L1MC piRNA 5'p-UAACUAAAUACUAUGCAAGCUGUAGGUCCU
Procedure, shortened: as §1

[3] = test system: EfPiwi piRISC loaded with L1MC piRNA (26 nt); experiment: pre-steady-state target cleavage rate (min^-1); guide: L1MC piRNA 5'p-UAACUAAAUACUAUGCAAGCUGUAGG; MIWI and MILI are mouse PIWI proteins and EfPiwi is from a freshwater sponge; tags in brackets are library labels; higher = faster piRNA-guided slicing of the target
Procedure, shortened: as §1

[4] = auxiliary factor: none (no GTSF1)
[5] = auxiliary factor: 500 nM Ephydatia muelleri Gtsf1
[6] = auxiliary factor: 500 nM mouse GTSF1
[7] = auxiliary factor: none (no Gtsf1)

| Sequence | pre-steady-state target cleavage rate [1, 4] | pre-steady-state target cleavage rate [2, 4] | pre-steady-state target cleavage rate [3, 5] | pre-steady-state target cleavage rate [1, 6] | pre-steady-state target cleavage rate [2, 6] | pre-steady-state target cleavage rate [3, 7] |
| --- | --- | --- | --- | --- | --- | --- |
| UCCUGGAACUCCUUGCAUAGUAUUUACAAA | 0.000932 ± 0.0054 | 0.00141 ± 0.0045 | 0.00184 ± 0.0028 |  |  |  |
| UCCUCACUACAGCUUGCAUAGUAUUUAGUUA | 0.00971 ± 0.0027 | 0.0551 ± 0.0082 | 0.0191 ± 0.0067 | 0.259 ± 0.022 | 0.676 ± 0.03 |  |
| UCCUGGAUCAGCUUGCAUAGUAUUUAGUUG [g2:g22:cont:t1G] | 0.00983 ± 0.0019 | 0.0362 ± 0.0084 | 0.0209 ± 0.0054 | 0.285 ± 0.018 | 1.05 ± 0.12 |  |
| UCCUGCGUACAGCUUGCAUAGUAUUUAGUUA | 0.0109 ± 0.0033 | 0.0785 ± 0.016 | 0.0434 ± 0.012 | 0.314 ± 0.021 | 1.33 ± 0.062 |  |
| UCCUGGAUCAGCUUGCAUUCAAUUUUCAAA | 0.000586 ± 0.0094 | 0.000621 ± 0.0079 | 0.000158 ± 0.024 |  |  |  |
| UCCUGGAUCAGCUUGCAUACAUUUUAGUAA | 0.000808 ± 0.0085 | 0.000992 ± 0.0047 | 0.000294 ± 0.011 | 0.00123 ± 0.0065 | 0.00132 ± 0.0091 |  |
| UCCUGGAACAGCUUGCAUAGAUAUUACAAA | 0.000933 ± 0.0057 | 0.000797 ± 0.01 | 0.000356 ± 0.011 |  |  |  |
| UCCUGGAUGUCCUUGCAUAGAUUUUAGUAA | 0.000971 ± 0.0055 | 0.000588 ± 0.011 | 0.00183 ± 0.0047 | 0.00326 ± 0.0051 | 0.00154 ± 0.0078 |  |
| UCCUGGAUGACCUUGCAUAGUAUUUAGAUA | 0.00192 ± 0.0046 | 0.00347 ± 0.0042 |  |  |  | 0.000623 ± 0.015 |
| UCCUGGAUGUCGAAGCUAGUAUUUAGUUA | 0.00046 ± 0.01 | 0.000772 ± 0.0065 | 0.000702 ± 0.0082 |  |  |  |
| UCCUGGAUGUGCUUGCAUAGUAUUAUCUUA | 0.000674 ± 0.0081 | 0.00108 ± 0.0072 | 0.00199 ± 0.0059 |  |  |  |
| UCCUGGUACAGCUUGCAUACUAUUUAGAAA | 0.00137 ± 0.0064 | 0.0029 ± 0.0031 | 0.00236 ± 0.0018 |  |  |  |
| UCCUGGUACAGCUUGCAUAGAUAUUAGUUA | 0.00312 ± 0.0032 | 0.00176 ± 0.0038 | 0.000649 ± 0.0068 |  |  |  |
| UCCUGCUACAGCUUGCUAAGUAUUUAGAAA | 0.000913 ± 0.0077 | 0.000381 ± 0.0083 | 0.00164 ± 0.0034 |  |  |  |
| UCCUGGAUCAGCUUGCAAUGUAUUUACAAA | 0.0016 ± 0.0039 | 0.00205 ± 0.0037 | 0.000304 ± 0.012 |  |  |  |
| UCCUGGAUGUCGAACCAUAGUAAUAAGUUA | 0.000235 ± 0.016 | 0.000336 ± 0.012 | 0.000308 ± 0.02 |  |  |  |
| UCCUGGAUGUCCUUGCAUAGUAUUAAGAUA | 0.000859 ± 0.0065 | 0.000919 ± 0.0075 | 0.00174 ± 0.0048 |  |  |  |
| UCCUGGAUCAGCUUCCAUAGUUUUUAGUUA | 0.000419 ± 0.015 | 0.000647 ± 0.0093 | 0.000603 ± 0.0063 |  |  |  |
| UCCUGGAUGUCGUUGCAUUCAAUUUAGUUA | 0.000402 ± 0.013 | 0.000386 ± 0.016 | 0.000162 ± 0.023 |  |  |  |
| UCCUGGUAGUGCUUGCAUAGUAUUUUCAAA | 0.000933 ± 0.0054 | 0.00203 ± 0.0029 | 0.00143 ± 0.0039 |  |  |  |
| UCCUGGAUGUGCUAGCAUAGUAUUUAGAUA | 0.00104 ± 0.0065 | 0.00316 ± 0.0038 | 0.00239 ± 0.0025 |  |  |  |
| UCCUCCUACAGGUUGCAUAGUAUUUACAAA | 0.000929 ± 0.0056 | 0.00132 ± 0.0048 | 0.00321 ± 0.0024 |  |  |  |

| Sequence | pre-steady-state target cleavage rate [1, 4] | pre-steady-state target cleavage rate [2, 4] | pre-steady-state target cleavage rate [3, 5] | pre-steady-state target cleavage rate [1, 6] | pre-steady-state target cleavage rate [2, 6] | pre-steady-state target cleavage rate [3, 7] |
| --- | --- | --- | --- | --- | --- | --- |
| UCCUGGAUCAGCUUGGAUAGUAUUUACAAA | 0.000265 ± 0.023 | 0.000759 ± 0.0082 | 0.000712 ± 0.005 |  |  |  |
| UCCUGGAUGUCGAAGCUUUGUAUUUAGUUA | 0.000336 ± 0.013 | 0.000404 ± 0.013 | 0.00104 ± 0.0064 |  |  |  |
| UCCUGGAUGUGCUUGCCAUAGUAUUUAGUUA | 0.00141 ± 0.0061 | 0.00112 ± 0.0071 | 0.000944 ± 0.0044 |  |  |  |
| UCCUGGAUGUCCUUCCAUAGUAUUUAGUAA | 0.000645 ± 0.0077 | 0.000661 ± 0.0085 | 0.00142 ± 0.0054 |  |  |  |
| UCCUGGAUGUCCUAGCAUUGUAUUUAGUUA | 0.0016 ± 0.0034 | 0.000862 ± 0.0074 | 0.00231 ± 0.0053 |  |  |  |
| UCCUGGAACAGCAUGCAUAGUAUUUACAAA | 0.00114 ± 0.0058 | 0.00143 ± 0.0043 | 0.00222 ± 0.0025 |  |  |  |
| UCCUGGAUGUCGAAGCUUAGUAUUAAGUUA | 0.000365 ± 0.014 | 0.000553 ± 0.0089 | 0.000348 ± 0.015 |  |  |  |
| UCCUGGAUGUCCUUCCAUAGUAUUUACUUA | 0.000127 ± 0.049 | 0.000459 ± 0.015 | 0.000808 ± 0.0078 |  |  |  |
| UCCUGGAUGUCGAAGCAUAGCUAUUUAGUUA | 0.000271 ± 0.016 | 0.000815 ± 0.0069 | 0.000175 ± 0.018 |  |  |  |
| UCCUGGAUGUCCUUGCAUAGUUAAAUCAAA [g10:g19:cont:t1A] | 0.00044 ± 0.011 | 0.000635 ± 0.011 | 0.00113 ± 0.0063 |  |  |  |
| UCCUGGAUGUCGAUGCAAAGUUUUUAGUUA | 0.000997 ± 0.0058 | 0.000527 ± 0.014 | 0.000296 ± 0.015 |  |  |  |
| UCCUGCUACAGGUUGCAUAGUAUUUAGAAA | 0.00222 ± 0.0026 | 0.00192 ± 0.0036 |  |  |  | 0.000184 ± 0.023 |
| UCCUGGAUGUCGAACCAUAGUCUUUAGUUA |  |  | < 0.0001 | 0.000427 ± 0.0095 | 0.000398 ± 0.01 |  |
| UCCUGGAUGUCGUUCCAUUGUAUUUAGUUA | 0.000308 ± 0.018 |  | 0.000397 ± 0.01 |  | 0.00124 ± 0.0069 |  |
| UCCUGGAUGUCGAUGCAUAGUAUUUGUUA | 0.000245 ± 0.021 | 0.000672 ± 0.0099 | 0.000503 ± 0.0096 |  |  |  |
| UCCUGGAUGUCGAUGCAUAGUAUUUCGUUA | 0.00121 ± 0.0062 | 0.00115 ± 0.0067 | 0.00145 ± 0.0029 |  |  |  |
| UCCUGGAACAGCUUGCAUACUAUUUUCAAA | 0.00121 ± 0.0049 | 0.00182 ± 0.0028 | 0.00152 ± 0.0025 |  |  |  |
| UCCUGGAUGUCCUUGGUAAGUAUUUAGUAA | 0.000448 ± 0.011 | 0.000919 ± 0.0084 | 0.00113 ± 0.0085 |  |  |  |
| UCCUGGAUGUCCUACGAUAGUAUUUAGUAA | 0.000305 ± 0.014 | 0.000517 ± 0.012 | 0.000197 ± 0.017 |  |  |  |
| UCCUGGUACUCGUUGCAUAGUAUUUAGUAA | 0.00168 ± 0.005 | 0.00163 ± 0.005 | 0.000613 ± 0.0067 |  |  |  |
| UCCUCCUACAGCUUGCAUAGGUAUUUAGUUA | 0.00373 ± 0.0024 | 0.00109 ± 0.0072 | 0.0036 ± 0.0026 |  |  |  |

A different layout for some results above.
Sequence | pre-steady-state target cleavage rate [1, 4] | pre-steady-state target cleavage rate [2, 4] | pre-steady-state target cleavage rate [3, 5] | pre-steady-state target cleavage rate [1, 6] | pre-steady-state target cleavage rate [2, 6] | pre-steady-state target cleavage rate [3, 7]
UCCUGGAUGUCCUUGGUAAGUAUUUAGUAA | 0.000448 ± 0.011 | 0.000919 ± 0.0084 | 0.00113 ± 0.0085 |  |  | 
UCCUGGAUGUCCUACGAUAGUAUUUAGUAA | 0.000305 ± 0.014 | 0.000517 ± 0.012 | 0.000197 ± 0.017 |  |  | 
